This note sets out measurements from the supplement of paper PMC4604168 (melanoma cell lines).

SMILES strings stand for the structures. The list shows a part of the results. Repeats are few or missing, and single values can be far off.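 Cells were imaged in 1,536-well plates, and nuclei stained with an antibody against cleaved PARP were counted against all DNA-stained nuclei to give the apoptosis fraction. Screening doses were chosen to leave most cells alive, and resting and induced cleaved-PARP levels differ strongly between cell lines.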

This experiment has as its system UACC257. Description: cleaved PARP positive nuclei fraction relative to DMSO control; melanoma cells; higher = more apoptosis. The settings on record: library dose: low library concentration; 72 h.
For `CC1(C)CCC(c2ccc(Cl)cc2)=C(CN2CCN(c3ccc(C(=O)NS(=O)(=O)c4ccc(N[C@H](CCN5CCOCC5)CSc5ccccc5)c(S(=O)(=O)C(F)(F)F)c4)cc3)CC2)C1` + CCN(CC)CCCCNc1ncc2cc(-c3cc(OC)cc(OC)c3)c(NC(=O)NC(C)(C)C)nc2n1 [PD173074] (first compound 0.4 µM, partner dose 0.1 µM), the “cleaved PARP positive nuclei fraction” value is 162%.

For `C[C@]1(O)C[C@@H](c2nc(-c3ccc4ccc(-c5ccccc5)nc4c3)c3c(N)nccn32)C1` + COc1cc2ncnc(Nc3ccc(Oc4ccccc4)cc3)c2cc1OC [SrcI1] (first compound 0.4 µM, partner dose 2 µM), the “cleaved PARP positive nuclei fraction” value worked out at 26.4%.

Regarding `CC1(C)CCC(c2ccc(Cl)cc2)=C(CN2CCN(c3ccc(C(=O)NS(=O)(=O)c4ccc(N[C@H](CCN5CCOCC5)CSc5ccccc5)c(S(=O)(=O)C(F)(F)F)c4)cc3)CC2)C1` + CCc1ccc(CCOc2ccc(CC3SC(=O)NC3=O)cc2)nc1 [pioglitazone] (first compound 0.4 µM, partner dose 2 µM), the “cleaved PARP positive nuclei fraction” value turned out to be 272%.

Regarding `C[C@@H](N)c1ccc(C(=O)Nc2ccnc3[nH]ccc23)cc1` + CCN(CC)CCCCNc1ncc2cc(-c3cc(OC)cc(OC)c3)c(NC(=O)NC(C)(C)C)nc2n1 [PD173074] (first compound 0.4 µM, partner dose 0.1 µM), the “cleaved PARP positive nuclei fraction” value was 198%.

Regarding `CCN(CC)CCNC(=O)c1c(C)[nH]c(/C=C2\C(=O)Nc3ccc(F)cc32)c1C` [sunitinib] + Cc1cc(N2CCOCC2)cc2[nH]c(-c3c(NC[C@@H](O)c4cccc(Cl)c4)cc[nH]c3=O)nc12 [BMS536924] (first compound 0.4 µM, partner dose 0.2 µM), the “cleaved PARP positive nuclei fraction” value is 155%.

As to `NC(=O)c1ccc(N(C(N)=O)c2c(F)cccc2F)nc1-c1ccc(F)cc1F` + O=C(Nc1cccc(Cl)c1)Nc1ncc(CCNc2ncnc3ccsc23)s1 [SNS314] (first compound 0.4 µM, partner dose 0.0008 µM), the “cleaved PARP positive nuclei fraction” value is 112%.

As for `Cn1cnc2c(F)c(Nc3ccc(Br)cc3Cl)c(C(=O)NOCCO)cc21` [selumetinib] + Cc1ccc(NC(=O)c2cccc(N(C)C)c2)cc1NC(=O)c1ccc(O)cc1 [ZM336372] (first compound 0.015 µM, partner dose 2 µM), the “cleaved PARP positive nuclei fraction” value came to 112%.

`CS(=O)(=O)c1ccc(C(=O)Nc2ccc(Cl)c(-c3ccccn3)c2)c(Cl)c1` [vismodegib] + NC(=O)Nc1cc(-c2cccc(F)c2)sc1C(=O)N[C@H]1CCCNC1 [AZD7762] (first compound 1 µM, partner dose 0.02 µM): the “cleaved PARP positive nuclei fraction” value was found to be 47%.

Take `Cn1cnc2c(F)c(Nc3ccc(Br)cc3Cl)c(C(=O)NOCCO)cc21` [selumetinib] + Cc1cc(N2CCOCC2)cc2[nH]c(-c3c(NC[C@@H](O)c4cccc(Cl)c4)cc[nH]c3=O)nc12 [BMS536924] (first compound 0.015 µM, partner dose 0.2 µM): the “cleaved PARP positive nuclei fraction” value turned out to be 110%.

Turning to `Cn1cnc2c(F)c(Nc3ccc(Br)cc3Cl)c(C(=O)NOCCO)cc21` [selumetinib] + Oc1nc(-c2ccc(C(F)(F)F)cc2)nc2c1CSCC2 [XAV939] (first compound 0.015 µM, partner dose 2 µM), the “cleaved PARP positive nuclei fraction” value worked out at 109%.

On to `COc1ccc(C2=N[C@@H](c3ccc(Cl)cc3)[C@@H](c3ccc(Cl)cc3)N2C(=O)N2CCNC(=O)C2)c(OC(C)C)c1` [Nutlin-3] + Oc1nc(-c2ccc(C(F)(F)F)cc2)nc2c1CSCC2 [XAV939] (first compound 0.1 µM, partner dose 2 µM), for which the “cleaved PARP positive nuclei fraction” value amounted to 234%.

As for `NC(=O)c1ccc(N(C(N)=O)c2c(F)cccc2F)nc1-c1ccc(F)cc1F` + COc1cc2c(Oc3ccc4[nH]c(C)cc4c3F)ncnc2cc1OCCCN1CCCC1 [cediranib] (first compound 0.4 µM, partner dose 0.4 µM), the “cleaved PARP positive nuclei fraction” value worked out at 46.7%.

Take `Cn1cnc2c(F)c(Nc3ccc(Br)cc3Cl)c(C(=O)NOCCO)cc21` [selumetinib] + CCN(CC)CCCCNc1ncc2cc(-c3cc(OC)cc(OC)c3)c(NC(=O)NC(C)(C)C)nc2n1 [PD173074] (first compound 0.015 µM, partner dose 0.1 µM): the “cleaved PARP positive nuclei fraction” value worked out at 112%.

With `CN(c1ncccc1CNc1nc(Nc2ccc3c(c2)CC(=O)N3)ncc1C(F)(F)F)S(C)(=O)=O` + Oc1nc(-c2ccc(C(F)(F)F)cc2)nc2c1CSCC2 [XAV939] (first compound 0.08 µM, partner dose 2 µM), the “cleaved PARP positive nuclei fraction” value was 487%.

Regarding `Cn1cnc2c(F)c(Nc3ccc(Br)cc3Cl)c(C(=O)NOCCO)cc21` [selumetinib] + COc1ccc(COc2ccc(Cc3cnc(N)nc3N)cc2OC)cc1 [GW2580] (first compound 0.015 µM, partner dose 1 µM), the “cleaved PARP positive nuclei fraction” value came out at 102%.

With `NC(=O)c1ccc(N(C(N)=O)c2c(F)cccc2F)nc1-c1ccc(F)cc1F` + O=C(O)c1ccc(-c2c[nH]c3ncc(-c4ccccc4)cc23)cc1C1CCCC1 [GSK650394] (first compound 0.4 µM, partner dose 0.16 µM), the “cleaved PARP positive nuclei fraction” value came to 113%.

`COc1ccc(C2=N[C@@H](c3ccc(Cl)cc3)[C@@H](c3ccc(Cl)cc3)N2C(=O)N2CCNC(=O)C2)c(OC(C)C)c1` [Nutlin-3] + NC(=O)Nc1cc(-c2cccc(F)c2)sc1C(=O)N[C@H]1CCCNC1 [AZD7762] (first compound 0.1 µM, partner dose 0.02 µM): the “cleaved PARP positive nuclei fraction” value came to 97.9%.

Regarding `CS(=O)(=O)c1ccc(C(=O)Nc2ccc(Cl)c(-c3ccccn3)c2)c(Cl)c1` [vismodegib] + Cc1ccc(NC(=O)c2cccc(N(C)C)c2)cc1NC(=O)c1ccc(O)cc1 [ZM336372] (first compound 1 µM, partner dose 2 µM), the “cleaved PARP positive nuclei fraction” value is 214%.

As to `CCCCCCCCc1ccc(CCC(N)(CO)CO)cc1` [fingolimod] + Cn1cc(/C=C2\C(=O)Nc3cccnc32)c2ccccc21 [GW441756] (first compound 2 µM, partner dose 0.4 µM), the “cleaved PARP positive nuclei fraction” value came to 648%.

`NC1(c2ccc(-c3nc4ccn5c(=O)[nH]nc5c4cc3-c3ccccc3)cc2)CCC1` + C=CCn1c(=O)c2cnc(Nc3ccc(N4CCN(C)CC4)cc3)nc2n1-c1cccc(C(C)(C)O)n1 [MK1775] (first compound 0.4 µM, partner dose 0.02 µM): the “cleaved PARP positive nuclei fraction” value was 146%.

On to `C[C@]1(O)C[C@@H](c2nc(-c3ccc4ccc(-c5ccccc5)nc4c3)c3c(N)nccn32)C1` + O=C(Nc1cccc(Cl)c1)Nc1ncc(CCNc2ncnc3ccsc23)s1 [SNS314] (first compound 0.4 µM, partner dose 0.0008 µM), for which the “cleaved PARP positive nuclei fraction” value was found to be 210%.

Consider `CC1(C)CCC(c2ccc(Cl)cc2)=C(CN2CCN(c3ccc(C(=O)NS(=O)(=O)c4ccc(N[C@H](CCN5CCOCC5)CSc5ccccc5)c(S(=O)(=O)C(F)(F)F)c4)cc3)CC2)C1` + O=C1NC(=O)/C(=C/c2ccc(-c3ccc(F)cc3O)o2)S1 [AS252424] (first compound 0.4 µM, partner dose 1 µM), for which the “cleaved PARP positive nuclei fraction” value came to 121%.

As to `CC1(C)CCC(c2ccc(Cl)cc2)=C(CN2CCN(c3ccc(C(=O)NS(=O)(=O)c4ccc(N[C@H](CCN5CCOCC5)CSc5ccccc5)c(S(=O)(=O)C(F)(F)F)c4)cc3)CC2)C1` + c1cc(-c2cnn3cc(-c4ccc(OCCN5CCCCC5)cc4)cnc23)ccn1 [Dorsomorphin] (first compound 0.4 µM, partner dose 0.4 µM), the “cleaved PARP positive nuclei fraction” value worked out at 158%.

As for `CN(c1ncccc1CNc1nc(Nc2ccc3c(c2)CC(=O)N3)ncc1C(F)(F)F)S(C)(=O)=O` + CCN(CC)CCCCNc1ncc2cc(-c3cc(OC)cc(OC)c3)c(NC(=O)NC(C)(C)C)nc2n1 [PD173074] (first compound 0.08 µM, partner dose 0.1 µM), the “cleaved PARP positive nuclei fraction” value turned out to be 142%.
